These are yes or no findings as the source states them, for the method shown. Binding seen in cells or lysates may run through a third protein. Sequences can lack the tags named with a protein. Each block holds one binder with its values, some of them ahead of it.
Legend:
[1] = molecular target: T1, Kv6.4-HA wild-type (human) (UniProt Q8TDN1); test: co-IP
T1 sequence: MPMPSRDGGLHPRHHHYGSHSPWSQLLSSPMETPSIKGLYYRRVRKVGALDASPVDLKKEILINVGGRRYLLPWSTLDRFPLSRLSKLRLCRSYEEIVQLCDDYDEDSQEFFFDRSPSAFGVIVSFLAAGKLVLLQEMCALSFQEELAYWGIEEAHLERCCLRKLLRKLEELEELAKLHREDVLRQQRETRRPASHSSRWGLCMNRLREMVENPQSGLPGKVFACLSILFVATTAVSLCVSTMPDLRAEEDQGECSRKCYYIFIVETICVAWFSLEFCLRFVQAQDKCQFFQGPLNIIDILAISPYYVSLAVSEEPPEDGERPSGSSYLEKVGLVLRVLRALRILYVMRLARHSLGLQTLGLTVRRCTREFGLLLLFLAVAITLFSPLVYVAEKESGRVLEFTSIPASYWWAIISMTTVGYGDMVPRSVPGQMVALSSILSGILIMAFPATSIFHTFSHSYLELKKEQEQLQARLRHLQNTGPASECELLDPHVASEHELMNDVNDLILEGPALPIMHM

[2] = molecular target: T2, Kv6.1-HA wild-type (human) (UniProt Q9UIX4); test: co-IP
T2 sequence: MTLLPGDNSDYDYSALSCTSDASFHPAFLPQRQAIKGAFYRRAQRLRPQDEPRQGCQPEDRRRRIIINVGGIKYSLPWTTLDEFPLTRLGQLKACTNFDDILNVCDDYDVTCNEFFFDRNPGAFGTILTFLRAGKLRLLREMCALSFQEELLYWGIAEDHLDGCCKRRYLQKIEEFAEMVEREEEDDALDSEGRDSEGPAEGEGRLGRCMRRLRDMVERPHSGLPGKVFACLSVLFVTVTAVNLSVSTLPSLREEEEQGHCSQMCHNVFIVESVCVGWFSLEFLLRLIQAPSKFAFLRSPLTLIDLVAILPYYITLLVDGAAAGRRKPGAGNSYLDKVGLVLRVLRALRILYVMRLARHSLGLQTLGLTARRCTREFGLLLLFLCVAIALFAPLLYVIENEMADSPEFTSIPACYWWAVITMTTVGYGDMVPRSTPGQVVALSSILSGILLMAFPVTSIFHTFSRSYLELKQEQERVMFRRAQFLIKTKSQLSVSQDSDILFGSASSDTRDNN

binding [1]: no binding
B1: Kv6.2-Flag wild-type (protein, UniProt Q9UJ96 1-466)
chain: MEPWPCSPGGGGGTRARHVIINVGGCRVRLAWAALARCPLARLERLRACRGHDDLLRVCDDYDVSRDEFFFDRSPCAFRAIVALLRAGKLRLLRGPCALAFRDELAYWGIDEARLERCCLRRLRRREEEAAEARAGPTERGAQGSPARALGPRGRLQRGRRRLRDVVDNPHSGLAGKLFACVSVSFVAVTAVGLCLSTMPDIRAEEERGECSPKCRSLFVLETVCVAWFSFEFLLRSLQAESKCAFLRAPLNIIDILALLPFYVSLLLGLAAGPGGTKLLERAGLVLRLLRALRVLYVMRLARHSLGLRSLGLTMRRCAREFGLLLLFLCVAMALFAPLVHLAERELGARRDFSSVPASYWWAVISMTTVGYGDMVPRSLPGQVVALSSILSGILLMAFPVTSIFHTFSRSYSELKEQQQRAASPEPALQEDSTHSATATEDSSQGPDSAGLADDSADALWVRAGR

binding [2]: no binding | binding [1]: no binding
B2: Kv6.3-Flag wild-type (protein, UniProt Q8TAE7 1-436)
chain: MTFGRSGAASVVLNVGGARYSLSRELLKDFPLRRVSRLHGCRSERDVLEVCDDYDRERNEYFFDRHSEAFGFILLYVRGHGKLRFAPRMCELSFYNEMIYWGLEGAHLEYCCQRRLDDRMSDTYTFYSADEPGVLGRDEARPGGAEAAPSRRWLERMRRTFEEPTSSLAAQILASVSVVFVIVSMVVLCASTLPDWRNAAADNRSLDDRSRYSAGPGREPSGIIEAICIGWFTAECIVRFIVSKNKCEFVKRPLNIIDLLAITPYYISVLMTVFTGENSQLQRAGVTLRVLRMMRIFWVIKLARHFIGLQTLGLTLKRCYREMVMLLVFICVAMAIFSALSQLLEHGLDLETSNKDFTSIPAACWWVIISMTTVGYGDMYPITVPGRILGGVCVVSGIVLLALPITFIYHSFVQCYHELKFRSARYSRSLSTEFLN

binding [1]: no binding
B3: Kv6.1-Flag wild-type (protein, UniProt Q9UIX4 1-513)
chain: T2 sequence

Reference: doi:10.64898/2025.12.18.692915
